Where no end group is shown, it is not given here. [ ]: non-standard residue; d: D form. The star is where a group is joined. Asn(Trt) = N[C@@H](CC(=O)NC(c1ccccc1)(c1ccccc1)c1ccccc1)C(=O)O; Trt = c1ccc(C(c2ccccc2)(c2ccccc2)*)cc1; Fmoc = O=C(OCC1c2ccccc2-c2ccccc21)*; OtBu = CC(C)(C)O*; Acm = CC(=O)NC*; tBu = CC(C)(C)*
Test: general procedure: hybrid (solid and solution phase) peptide synthesis; 2-CTC resin; HBTU/Cl-HOBt/DIPEA or EDC HCl/HOAt (fragment couplings)
[1] = oxidative folding step, HPLC, LCMS for protected fragments

With “Ala-Cys(Trt)-Thr(tBu)-Gly-Cys(Acm)-Leu(OtBu)” the “crude LC-MS purity” value (late stage modification step, HPLC, LCMS for protected fragments) was >90%, the step yield (late stage modification step, run 1) was 82% and the step yield (late stage modification step, run 2) was 85.88%.

With “Fmoc-Ala-Cys(Trt)-Thr(tBu)-Gly-Cys(Acm)-Leu(OtBu)” the “crude LC-MS purity” value (coupling step, HPLC, LCMS for protected fragments) was >99%, the step yield (coupling step, run 1) was 62% and the step yield (coupling step, run 2) was 93.24%.

Substance “Fmoc-[Asn(Trt)]VAC(Trt)T(tBu)GC(Acm)L-OtBu” has a step yield (coupling step) of 94.00%.

In the case of Plecanatide, the step yield (late stage modification step) was 97.3%, the oxidative folding yield (oxidative folding step) was 48.91% and the “final HPLC purity” value [1] was >98%. For the same substance, the “final purity (method not given)” value [1] was >98%, the “final purity (method not given)” value (whole synthesis, HPLC, LCMS for protected fragments, scale of the general procedure 100 g resin) was “about 98%-98.5%” and the isolated yield (whole synthesis, overall, scale of the general procedure 100 g resin) was “about 60-70%”.

For [Asn(Trt)]VAC(Trt)T(tBu)GC(Acm)L-OtBu, the step yield (late stage modification step) was 87.10%.
